Laboratory results from US12351591B2, “KRas inhibitors” (ELI LILLY AND COMPANY, priority 2022, dated 2025).
Some results were stated once for a whole list of compounds, not compound by compound.

molecular target: T1, KRas wild-type (Homo sapiens, UniProt P01116); experiment: MKN-45 Cellular Active RAS GTPase ELISA (KRas Wild-type); type: cell-based; conditions: PANC-1 versus MKN-45 Cellular Active RAS GTPase ELISA
T1 construct: host or cells: MKN-45

| SMILES | selective inhibition preference for KRas G12D mutant over KRas wild-type |
| --- | --- |
| COCCN1CC2CCC(C1)N2c1nc(OCC23CCCN2CC(OC)C3)nc2c(F)c(-c3ncc(F)c4sc(N)c(C#N)c34)c3c(c12)COC3 (stereo not shown) [Example 131, 2-Amino-7-fluoro-4-[5-fluoro-1-[3-(2-methoxyethyl)-3,8-diazabicyclo[3.2.1]octan-8-yl]-3-[(2-methoxy-1,2,3,5,6,7-hexahydropyrrolizin-8-yl)methoxy]-7,9-dihydrofuro[3,4-f]quinazolin-6-yl]thieno[3,2-c]pyridine-3-carbonitrile] | greater than 10 fold |
| CO[C@H](C)CN1CC2CCC(C1)N2c1nc(OC[C@@H]2CCCN2C)nc2c(F)c(-c3c(F)ccc4sc(N)c(C#N)c34)c3c(c12)COC3 (single isomer, unassigned) [Example 216] | greater than 10 fold |
| CN(C)CC1(COc2nc(N3C4CCC3CN(CCCO)C4)c3c4c(c(-c5ncc(F)c6sc(N)c(C#N)c56)c(F)c3n2)COC4)CC1 [Example 334, 2-Amino-4-[3-[[1-[(dimethylamino)methyl]cyclopropyl]methoxy]-5-fluoro-1-[3-(3-hydroxypropyl)-3,8-diazabicyclo[3.2.1]octan-8-yl]-7,9-dihydrofuro[3,4-f]quinazolin-6-yl]-7-fluoro-thieno[3,2-c]pyridine-3-carbonitrile] | greater than 10 fold |
| CN(C)C1CN(c2nc(N3C4CCC3CN(CCCO)C4)c3c4c(c(-c5c(F)ccc6sc(N)c(C#N)c56)c(F)c3n2)COC4)C1 (single isomer, unassigned) [Example 139, 2-Amino-4-[3-[3-(dimethylamino)azetidin-1-yl]-5-fluoro-1-[3-(3-hydroxypropyl)-3,8-diazabicyclo[3.2.1]octan-8-yl]-7,9-dihydrofuro[3,4-f]quinazolin-6-yl]-5-fluoro-benzothiophene-3-carbonitrile] | greater than 10 fold |
| CN1CC2CC(C1)N2c1ncnc2c(F)c(-c3c(F)ccc4sc(N)c(C#N)c34)c3c(c12)COC3 (single isomer, unassigned) [Example 53, 2-Amino-5-fluoro-4-[5-fluoro-1-(3-methyl-3,6-diazabicyclo[3.1.1]heptan-6-yl)-7,9-dihydrofuro[3,4-f]quinazolin-6-yl]benzothiophene-3-carbonitrile] | greater than 10 fold |
| C[C@@H](O)CN1CC2CCC(C1)N2c1nc(OCC2(CO)CCCN2C)nc2c(F)c(-c3c(F)ccc4sc(N)c(C#N)c34)c3c(c12)COC3 (single isomer, unassigned) [Example 182] | greater than 10 fold |
| C[C@@H](O)CN1CC2CCC(C1)N2c1nc(OC[C@@H]2C[C@@H](O)CN2C)nc2c(F)c(-c3c(F)ccc4sc(N)c(C#N)c34)c3c(c12)COC3 (single isomer, unassigned) [Example 184] | greater than 10 fold |
| COCCN1CC2CCC(C1)N2c1nc(OC[C@@]23CCCN2C[C@H](F)C3)nc2c(F)c(-c3ncc(C)c4sc(N)c(C#N)c34)c3c(c12)COC3 [Example 133, 2-Amino-4-[5-fluoro-3-[[(2R,8S)-2-fluoro-1,2,3,5,6,7-hexahydropyrrolizin-8-yl]methoxy]-1-[3-(2-methoxyethyl)-3,8-diazabicyclo[3.2.1]octan-8-yl]-7,9-dihydrofuro[3,4-f]quinazolin-6-yl]-7-methyl-thieno[3,2-c]pyridine-3-carbonitrile] | greater than 10 fold |
| C[C@@H](O)CN1CC2CCC(C1)N2c1nc(OC[C@H](C)N2CCOCC2)nc2c(F)c(-c3ncc(F)c4sc(N)c(C#N)c34)c3c(c12)COC3 [Example 358, 2-Amino-7-fluoro-4-[5-fluoro-1-[3-[(2R)-2-hydroxypropyl]-3,8-diazabicyclo[3.2.1]octan-8-yl]-3-[(2S)-2-morpholinopropoxy]-7,9-dihydrofuro[3,4-f]quinazolin-6-yl]thieno[3,2-c]pyridine-3-carbonitrile] | greater than 10 fold |
| CCO[C@H](C)CN1CC2CCC(C1)N2c1nc(OC[C@@H]2C[C@@H](F)CN2C)nc2c(F)c(-c3ncc(F)c4sc(N)c(C#N)c34)c3c(c12)COC3 [Example 363, 2-Amino-4-[1-[3-[(2R)-2-ethoxypropyl]-3,8-diazabicyclo[3.2.1]octan-8-yl]-5-fluoro-3-[[(2S,4R)-4-fluoro-1-methyl-pyrrolidin-2-yl]methoxy]-7,9-dihydrofuro[3,4-f]quinazolin-6-yl]-7-fluoro-thieno[3,2-c]pyridine-3-carbonitrile] | greater than 10 fold |
| [2H]C([2H])([2H])N1CC2CCC(C1)N2c1nc(OC[C@@]23CCCN2C[C@H](F)C3)nc2c(F)c(-c3c(F)ccc4sc(N)c(C#N)c34)c3c(c12)COC3 (single isomer, unassigned) [Example 191] | greater than 10 fold |
| N#Cc1c(N)sc2ccc(F)c(-c3c4c(c5c(N6C7CCC6CN(CCCO)C7)nc(OC[C@H]6CCCO6)nc5c3F)COC4)c12 (single isomer, unassigned) [Example 143] | greater than 10 fold |
| CN1CC2CCC(C1)N2c1nc(OC[C@@]23CCCN2C[C@H](F)C3)nc2c(F)c(-c3ncc(F)c4sc(N)c(C#N)c34)c3c(c12)COC3 [Example 121, 2-Amino-7-fluoro-4-[5-fluoro-3-[[(2R,8S)-2-fluoro-1,2,3,5,6,7-hexahydropyrrolizin-8-yl]methoxy]-1-(3-methyl-3,8-diazabicyclo[3.2.1]octan-8-yl)-7,9-dihydrofuro[3,4-f]quinazolin-6-yl]thieno[3,2-c]pyridine-3-carbonitrile] | greater than 10 fold |
| COCCCN1CC2CCC(C1)N2c1nc(OC[C@@]23CCCN2C[C@H](F)C3)nc2c(F)c(-c3c(F)ccc4sc(N)c(C#N)c34)c3c(c12)COC3 (single isomer, unassigned) [Example 113] | greater than 10 fold |
| CN1CCC[C@H]1COc1cc(N2C3CCC2CNC3)c2c3c(c(-c4ccc(F)c5sc(N)c(C#N)c45)c(Cl)c2n1)COC3 [Example 16, 2-Amino-4-[5-chloro-9-(3,8-diazabicyclo[3.2.1]octan-8-yl)-7-[[(2S)-1-methylpyrrolidin-2-yl]methoxy]-1,3-dihydrofuro[3,4-f]quinolin-4-yl]-7-fluoro-benzothiophene-3-carbonitrile] | greater than 10 fold |
| N#Cc1c(N)sc2cccc(-c3cc4nc(OC[C@@]56CCCN5C[C@H](F)C6)nc(N5C6CCC5CN(CCCO)C6)c4c4c3COC4)c12 [Example 137, 2-Amino-4-[3-[[(2R,8S)-2-fluoro-1,2,3,5,6,7-hexahydropyrrolizin-8-yl]methoxy]-1-[3-(3-hydroxypropyl)-3,8-diazabicyclo[3.2.1]octan-8-yl]-7,9-dihydrofuro[3,4-f]quinazolin-6-yl]benzothiophene-3-carbonitrile] | greater than 10 fold |
| C[C@@H](O)CN1CC2CCC(C1)N2c1nc(OC[C@@]23CCCN2C[C@H](F)C3)nc2c(F)c(-c3ccc(F)c4sc(N)c(C#N)c34)c3c(c12)COC3 [Example 162, 2-Amino-7-fluoro-4-[5-fluoro-3-[[(2R,8S)-2-fluoro-1,2,3,5,6,7-hexahydropyrrolizin-8-yl]methoxy]-1-[3-[(2R)-2-hydroxypropyl]-3,8-diazabicyclo[3.2.1]octan-8-yl]-7,9-dihydrofuro[3,4-f]quinazolin-6-yl]benzothiophene-3-carbonitrile] | greater than 10 fold |
| CO[C@H](C)CN1CC2CCC(C1)N2c1nc(OC[C@@]23CCCN2C[C@H](F)C3)nc2c(F)c(-c3ncc(F)c4sc(N)c(C#N)c34)c3c(c12)COC3 [Example 126, 2-Amino-7-fluoro-4-[5-fluoro-3-[[(2R,8S)-2-fluoro-1,2,3,5,6,7-hexahydropyrrolizin-8-yl]methoxy]-1-[3-[(2R)-2-methoxypropyl]-3,8-diazabicyclo[3.2.1]octan-8-yl]-7,9-dihydrofuro[3,4-f]quinazolin-6-yl]thieno[3,2-c]pyridine-3-carbonitrile] | greater than 10 fold |
| N#Cc1c(N)sc2cccc(-c3c4c(c5c(N6C7CCC6CN(CCO)C7)nc(OC[C@@]67CCCN6C[C@H](F)C7)nc5c3F)COC4)c12 [Example 46, 2-Amino-4-[5-fluoro-3-[[(2R,8S)-2-fluoro-1,2,3,5,6,7-hexahydropyrrolizin-8-yl]methoxy]-1-[3-(2-hydroxyethyl)-3,8-diazabicyclo[3.2.1]octan-8-yl]-7,9-dihydrofuro[3,4-f]quinazolin-6-yl]benzothiophene-3-carbonitrile] | greater than 10 fold |
| N#Cc1c(N)sc2ccc(F)c(-c3c4c(c5c(N6C7CCC6CN(CCCO)C7)nc(OC[C@@H]6CCCN6CCF)nc5c3F)COC4)c12 (single isomer, unassigned) [Example 141] | greater than 10 fold |
| COCCCN1CC2CCC(C1)N2c1nc(OC[C@@]23CCCN2C[C@H](F)C3)nc2c(F)c(-c3ncc(F)c4sc(N)c(C#N)c34)c3c(c12)COC3 [Example 122, 2-Amino-7-fluoro-4-[5-fluoro-3-[[(2R,8S)-2-fluoro-1,2,3,5,6,7-hexahydropyrrolizin-8-yl]methoxy]-1-[3-(3-methoxypropyl)-3,8-diazabicyclo[3.2.1]octan-8-yl]-7,9-dihydrofuro[3,4-f]quinazolin-6-yl]thieno[3,2-c]pyridine-3-carbonitrile] | greater than 10 fold |
| CC(=O)O.CO[C@H](C)CN1CC2CCC(C1)N2c1nc(OC[C@@H]2C[C@@H](F)CN2C)nc2c(F)c(-c3ncc(F)c4sc(N)c(C#N)c34)c3c(c12)COC3 [Example 364, 2-Amino-7-fluoro-4-[5-fluoro-3-[[(2S,4R)-4-fluoro-1-methyl-pyrrolidin-2-yl]methoxy]-1-[3-[(2R)-2-methoxypropyl]-3,8-diazabicyclo[3.2.1]octan-8-yl]-7,9-dihydrofuro[3,4-f]quinazolin-6-yl]thieno[3,2-c]pyridine-3-carbonitrile; acetic acid] | greater than 10 fold |
